Biological target: T1, Fluorescence-labeled PSMA protein (biotin-labelled purified PSMA protein with Alexa Fluor 647 Streptavidin) (human, UniProt Q04609 44-750, biotin label (EZ link Sulfo-NHS-Biotin), incubated with Alexa Fluor 647 Streptavidin)
T1 construct: This is the purified PSMA protein of m9 after labelling; also called fluorescence labeled recombinant PSMA protein; home-made fluorescent probe
Assay: flow cytometry of CAR T cells with fluorescence labeled recombinant PSMA protein as probe
From the text: (A3). In vitro cytotoxicity of PSMA-CAR T cells. Human peripheral blood mononuclear cells (PBMC) were isolated from leukopak following a SOP published by Hanc (HIV/ADIS Network Coordination). T cells including CD4+ and CD8+ T cells were isolated from PBMC with human T cell isolation kit (Miltenyi Biotec). T cells were activated by Dvnabeads human T-Activator CD3/CD28 (ThermoFisher) for 24 hrs, then transduced with lentiviruses expressing PSMA-CARs. Transduced cells were expanded for 8 to 21 days in culture. Flow cytometry was performed to determine the percentage of T cells that express functional CAR. To prepare home-made fluorescent probe, we labeled purified PSMA protein with biotin using EZ link Sulfo-NHS-Biotin (ThermoFisher), then incubated with Alexa Fluor® 647 Streptavidin (BioLegend) to obtain the probe.
For IFNγ induction (FIGS. 14C, 14D)), 4LH-CAR, 7LH-CAR, 5LH-CAR appeared to be the strongest. […] We also tested the in vitro killing on PSMA-positive VCaP cells, PSMA-negative wild type PC3 cells, and PSMA-positive PC3-PSMA stable cells. As anticipated, the PSMA-CAR T cell cytotoxicity IFNγ induction were strictly PSMA-dependent. Moreover, using fluorescence labeled recombinant PSMA protein as probe, flow cytometry analysis was performed on non-transduced and 11 PSMA-CAR T cells.

The chains behind the UniProt entries cited, without tags or fusion partners. Residues count along the entry.
UniProt Q04609, 44-750: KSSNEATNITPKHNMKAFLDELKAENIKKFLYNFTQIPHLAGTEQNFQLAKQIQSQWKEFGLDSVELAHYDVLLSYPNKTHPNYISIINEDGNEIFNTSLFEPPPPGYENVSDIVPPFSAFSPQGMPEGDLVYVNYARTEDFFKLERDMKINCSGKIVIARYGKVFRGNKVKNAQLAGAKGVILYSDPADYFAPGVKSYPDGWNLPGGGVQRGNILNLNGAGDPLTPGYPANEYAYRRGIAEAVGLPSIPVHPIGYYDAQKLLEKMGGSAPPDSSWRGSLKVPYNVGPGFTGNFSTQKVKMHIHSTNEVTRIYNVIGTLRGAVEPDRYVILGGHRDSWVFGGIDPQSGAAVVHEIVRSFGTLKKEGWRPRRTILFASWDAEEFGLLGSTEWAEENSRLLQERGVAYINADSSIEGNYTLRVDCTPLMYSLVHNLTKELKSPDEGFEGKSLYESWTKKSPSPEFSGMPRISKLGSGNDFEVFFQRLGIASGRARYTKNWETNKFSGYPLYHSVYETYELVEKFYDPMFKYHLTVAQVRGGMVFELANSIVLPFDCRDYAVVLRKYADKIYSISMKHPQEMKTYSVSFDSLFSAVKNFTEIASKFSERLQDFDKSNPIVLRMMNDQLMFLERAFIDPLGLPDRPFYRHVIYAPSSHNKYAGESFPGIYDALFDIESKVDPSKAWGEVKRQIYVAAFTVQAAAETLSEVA

percentage of CAR T cells positive for PSMA binding: 53%
B1: PSMA(5LH)-CAR, derived from antibody #1377 (VL-linker-VH) (other)
chain: DVVLTQAPLSLPVSLGDQASISCRSSQSLEYSNGNTYLHWYLQKPGQSPELLIYTVSNRFSGVPDRFSGSGSGTDFTLKIHRVEAEDLGVYFCSQSTHVPTFGGGTKLEIKRGGGGSGGGGSGGGGSVQLQQPGAALVRPGASVRLSCKASGYSFTYYWMNWVMQRPGQGLEWIGMIHPSDSETRLSQKFRDKATLTVDKSSSTVYMQLNSPTSDDSAVYYCARDGNFPYYALDYWGQGTSVTVSSTTTPAPRPPTPAPTIASQPLSLRPEACRPAAGGAVHTRGLDFACDIYIWAPLAGTCGVLLLSLVITLYCKRGRKKLLYIFKQPFMRPVQTTQEEDGCSCRFPEEEEGGCELRVKFSRSADAPAYKQGQNQLYNELNLGRREEYDVLDKRRGRDPEMGGKPRRKNPQEGLYNELQKDKMAEAYSEIGMKGERRRGKGHDGLYQGLSTATKDTYDALHMQALPPR
notes: Chimeric antigen receptor on transduced human T cells
